Assay results reported in the supplement of paper PMC8728848.
Some of the results follow.

Key:
Assay in all cases: glycan array binding signal (z-score within array); higher = stronger binding
Details in all cases: glycan notation: IUPAC condensed, linker removed
[1] = biological target: Neu5Ac(a2-3)Gal(b1-3)GlcNAc6S
How it was run: (§1)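 Arrays were curated from the Consortium for Functional Glycomics database, 3228 in total, and kept only where the protein sequence was available. Binding is expressed as a within-array Z-score. This score was averaged across arrays of the same protein sequence at different concentrations or buffers and across linkers, and negative values can be read as non-binding.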

[2] = biological target: Neu5Ac(a2-3)Gal(b1-3)[Fuc(a1-4)]GlcNAc
How it was run: as §1

[3] = biological target: Neu5Ac(a2-3)Gal(b1-3)[Fuc(a1-4)]GlcNAc(b1-3)Gal(b1-3)[Fuc(a1-4)]GlcNAc
How it was run: as §1

[4] = biological target: Neu5Ac(a2-3)Gal(b1-3)[Fuc(a1-4)]GlcNAc(b1-3)Gal(b1-4)[Fuc(a1-3)]GlcNAc
How it was run: as §1

[5] = biological target: Neu5Ac(a2-3)Gal(b1-3)[GlcNAc(b1-6)]GalNAc
How it was run: as §1

[6] = biological target: Neu5Ac(a2-3)Gal(b1-3)[Neu5Ac(a2-6)]GalNAc
How it was run: as §1

[7] = biological target: Neu5Ac(a2-3)Gal(b1-3)[Neu5Ac(a2-6)]GlcNAc(b1-3)[Fuc(a1-3)[Gal(b1-4)]GlcNAc(b1-6)]Gal(b1-4)Glc
How it was run: as §1

[8] = biological target: Neu5Ac(a2-3)Gal(b1-3)]Neu5Ac(a2-3)Gal(b1-4)]GlcNAc
How it was run: as §1

Neu5Ac(a2-3)Gal(b1-4)Glc = biological target: Neu5Ac(a2-3)Gal(b1-4)Glc
How it was run: as §1

[9] = biological target: Neu5Ac(a2-3)Gal(b1-4)GlcNAc
How it was run: as §1

[10] = biological target: Neu5Ac(a2-3)Gal(b1-4)GlcNAc(b1-2)Man
How it was run: as §1

[11] = biological target: Neu5Ac(a2-3)Gal(b1-4)GlcNAc(b1-2)Man(a1-3)[GlcNAc(b1-4)][Neu5Ac(a2-3)Gal(b1-4)GlcNAc(b1-2)Man(a1-6)]Man(b1-4)GlcNAc(b1-4)GlcNAc
How it was run: as §1

[12] = biological target: Neu5Ac(a2-3)Gal(b1-4)GlcNAc(b1-2)Man(a1-3)[Neu5Ac(a2-3)Gal(b1-4)GlcNAc(b1-2)Man(a1-6)]Man(b1-4)GlcNAc(b1-4)GlcNAc
How it was run: as §1

[13] = biological target: Neu5Ac(a2-3)Gal(b1-4)GlcNAc(b1-2)Man(a1-3)[Neu5Ac(a2-3)Gal(b1-4)GlcNAc(b1-2)Man(a1-6)]Man(b1-4)GlcNAc(b1-4)[Fuc(a1-6)]GlcNAc
How it was run: as §1

[14] = biological target: Neu5Ac(a2-3)Gal(b1-4)GlcNAc(b1-2)Man(a1-3)[Neu5Ac(a2-6)Gal(b1-4)GlcNAc(b1-2)Man(a1-6)]Man(b1-4)GlcNAc(b1-4)GlcNAc
How it was run: as §1

[15] = biological target: Neu5Ac(a2-3)Gal(b1-4)GlcNAc(b1-2)[Neu5Ac(a2-3)Gal(b1-4)GlcNAc(b1-4)]Man(a1-3)[GlcNAc(b1-4)][Neu5Ac(a2-3)Gal(b1-4)GlcNAc(b1-2)[Neu5Ac(a2-3)Gal(b1-4)GlcNAc(b1-6)]Man(a1-6)]Man(b1-4)GlcNAc(b1-4)GlcNAc
How it was run: as §1

[16] = biological target: Neu5Ac(a2-3)Gal(b1-4)GlcNAc(b1-2)[Neu5Ac(a2-3)Gal(b1-4)GlcNAc(b1-4)]Man(a1-3)[GlcNAc(b1-4)][Neu5Ac(a2-3)Gal(b1-4)GlcNAc(b1-4)Man(a1-6)]Man(b1-4)GlcNAc(b1-4)GlcNAc
How it was run: as §1

[17] = biological target: Neu5Ac(a2-3)Gal(b1-4)GlcNAc(b1-2)[Neu5Ac(a2-3)Gal(b1-4)GlcNAc(b1-6)]Man(a1-6)[Neu5Ac(a2-3)Gal(b1-4)GlcNAc(b1-2)Man(a1-3)][GlcNAc(b1-4)]Man(b1-4)GlcNAc(b1-4)GlcNAc
How it was run: as §1

[18] = biological target: Neu5Ac(a2-3)Gal(b1-4)GlcNAc(b1-3)Gal
How it was run: as §1

[19] = biological target: Neu5Ac(a2-3)Gal(b1-4)GlcNAc(b1-3)Gal(b1-3)GlcNAc
How it was run: as §1

[20] = biological target: Neu5Ac(a2-3)Gal(b1-4)GlcNAc(b1-3)Gal(b1-4)GlcNAc
How it was run: as §1

[21] = biological target: Neu5Ac(a2-3)Gal(b1-4)GlcNAc(b1-3)Gal(b1-4)GlcNAc(b1-2)Man(a1-3)[Neu5Ac(a2-3)Gal(b1-4)GlcNAc(b1-3)Gal(b1-4)GlcNAc(b1-2)Man(a1-6)]Man(b1-4)GlcNAc(b1-4)GlcNAc
How it was run: as §1

[22] = biological target: Neu5Ac(a2-3)Gal(b1-4)GlcNAc(b1-3)Gal(b1-4)GlcNAc(b1-3)Gal(b1-4)GlcNAc
How it was run: as §1

[23] = biological target: Neu5Ac(a2-3)Gal(b1-4)GlcNAc(b1-3)Gal(b1-4)GlcNAc(b1-3)Gal(b1-4)GlcNAc(b1-2)Man(a1-3)[Neu5Ac(a2-3)Gal(b1-4)GlcNAc(b1-3)Gal(b1-4)GlcNAc(b1-3)Gal(b1-4)GlcNAc(b1-2)Man(a1-6)]GalNAc
How it was run: as §1

[24] = biological target: Neu5Ac(a2-3)Gal(b1-4)GlcNAc(b1-3)Gal(b1-4)GlcNAc(b1-3)GalNAc
How it was run: as §1

[25] = biological target: Neu5Ac(a2-3)Gal(b1-4)GlcNAc(b1-3)Gal(b1-4)GlcNAc(b1-3)[Neu5Ac(a2-3)Gal(b1-4)GlcNAc(b1-3)Gal(b1-4)GlcNAc(b1-6)]GalNAc
How it was run: as §1

[26] = biological target: Neu5Ac(a2-3)Gal(b1-4)GlcNAc(b1-3)Gal(b1-4)GlcNAc(b1-6)[Gal(b1-3)]GalNAc
How it was run: as §1

[27] = biological target: Neu5Ac(a2-3)Gal(b1-4)GlcNAc(b1-3)Gal(b1-4)[Fuc(a1-3)]GlcNAc
How it was run: as §1

[28] = biological target: Neu5Ac(a2-3)Gal(b1-4)GlcNAc(b1-3)GalNAc
How it was run: as §1

[29] = biological target: Neu5Ac(a2-3)Gal(b1-4)GlcNAc(b1-3)[Neu5Ac(a2-3)Gal(b1-4)GlcNAc(b1-6)]GalNAc
How it was run: as §1

B1: Pwp1 (Candida glabrata) (protein)
chain: MGSSHHHHHHSSGLVPRGSHMASANPISITNVCQFPDNWARTAGFQATTVRLGLTIASNTYKELLNYPGLFNFATQKATVTQPNFSISGFPFFTGLYGLTVWPINLLVELQGYFVPPESGNYTFTLQGSDDAAILFFANPSTFACGSQNDWPQPREADITVTDTLVPSRTLYLVKGVAYPIRIAYYNGSGDGKLNVSFKDPSGTTHTDWKGYVWQYSNTCSTCTYT
[1]
  glycan array binding signal (z-score): 1.35
[2]
  glycan array binding signal (z-score): -1.74
[3]
  glycan array binding signal (z-score): -0.821
[4]
  glycan array binding signal (z-score): -0.839
[5]
  glycan array binding signal (z-score): 3.78
[6]
  glycan array binding signal (z-score): 0.612
[7]
  glycan array binding signal (z-score): -0.315
[8]
  glycan array binding signal (z-score): -0.801
Neu5Ac(a2-3)Gal(b1-4)Glc
  glycan array binding signal (z-score): -0.115
[9]
  glycan array binding signal (z-score): -0.118
[10]
  glycan array binding signal (z-score): 0.55
[11]
  glycan array binding signal (z-score): 0.469
[12]
  glycan array binding signal (z-score): -2.28
[13]
  glycan array binding signal (z-score): 0.747
[14]
  glycan array binding signal (z-score): -0.498
[15]
  glycan array binding signal (z-score): -1.42
[16]
  glycan array binding signal (z-score): 0.354
[17]
  glycan array binding signal (z-score): 2.29
[18]
  glycan array binding signal (z-score): -0.925
[19]
  glycan array binding signal (z-score): -0.345
[20]
  glycan array binding signal (z-score): 1.27
[21]
  glycan array binding signal (z-score): -1.69
[22]
  glycan array binding signal (z-score): -1.57
[23]
  glycan array binding signal (z-score): 0.775
[24]
  glycan array binding signal (z-score): 0.411
[25]
  glycan array binding signal (z-score): -1.07
[26]
  glycan array binding signal (z-score): -0.577
[27]
  glycan array binding signal (z-score): -1.03
[28]
  glycan array binding signal (z-score): -0.411
[29]
  glycan array binding signal (z-score): -0.512
